# Laboratory results taken from PubChem BioAssay AID624297 (National Center for Advancing Translational Sciences (NCATS), 2012).
# Out of some 340,000 compounds screened, about 6,200 (1.8%) were called active. Inconclusive means that the source gave no clear call. Such entries were picked first, then a sample of the others. Calls come from the whole dose curve; as a rule, active = well fitted activation curve with a large enough effect; inconclusive = small, poorly fitted or top-dose-only effect; inactive = no such curve, though single readings can be large or run the other way. Where the call is inconclusive, the potency comes from a doubtful curve fit.
# Assay: A quantitative high throughput screen for small molecules that induce DNA re-replication in SW480 colon adenocarcinoma cells. For re-replication activation: % of control where 0% means no effect. Note: nearly all actives have a fitted effect of over 55% in size.
# Conditions: Hoechst DNA content imaging, 48 h; re-replication activation: at 46.1 µM (top of the series) unless noted
# How it was run: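 Image-based read-out: total Hoechst fluorescence of nuclei (405 nm excitation, 500-530 nm emission), with hits raising the fraction of high-intensity nuclei. SW480 colon cells incubated 48 hr with compounds at 37 C.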
# Potency is the fitted concentration of half-maximal effect.
SMILES,Potency,re-replication activation
CCOC(=S)SCC(=O)Nc1nc(-c2ccccc2)cs1,"inconclusive: 29.1 µM [activator, single point]",–
CC12CCC(c3c(C(=O)O)nn(-c4ccc(F)cc4)c31)C2(C)C (stereo unspecified),"inconclusive: 1.84 µM [activator, partial curve]",–
COc1c(Cl)cc(Cl)cc1/C=N/NC(=O)c1nnn(-c2nonc2N)c1CN1CCC(C)CC1,"inconclusive: 20.6 µM [activator, partial curve, poor fit]",–
CCOc1ccccc1CNC(=O)CCc1cn(CC)c2ccccc12,inactive,–
Cc1ccc(NC(=O)CSCC(=O)OCc2cc(=O)oc3cc(O)ccc23)c(C)c1,"inconclusive: 18.4 µM [activator, partial curve, poor fit]",–
NS(=O)(=O)c1ccc(NC(=O)COC(=O)c2cn(-c3ccccc3)nc2-c2ccccc2)cc1,"inconclusive: 23.1 µM [activator, single point]",–
CCCCOc1ccc(/C=C/C(=O)Nc2ccc([N+](=O)[O-])cc2C)cc1,inactive,–
O=C(CCl)N(C/C=C/c1ccccc1)c1ccc2c(c1)OCCO2,"inconclusive: 23.1 µM [activator, partial curve, poor fit]",–
Nc1nnc(CC(=O)N/N=C/c2ccccc2OCc2ccccc2F)s1,"inconclusive: 29.1 µM [activator, single point]",–
Cc1ccc(NC(=O)CCC(=O)OCC(F)(F)C(F)F)cc1,inactive,–
O=C(CNC(=O)c1ccc2c(c1)OCCO2)N=Nc1c(O)[nH]c2ccccc12,"inconclusive: 20.6 µM [activator, single point]",–
O=c1[nH]ncn1-c1ccccc1,inactive,–
Cn1ccnc1SCC(=O)c1ccc(F)cc1,inactive,–
CCOC(=O)c1c[nH]c(=O)c(Br)c1O,inactive,–
Cc1ccc(C(=O)C[n+]2cc(-c3ccc(C)cc3)n3c2CCCCC3)cc1,inactive,–
CN(C)c1ccc(-c2c(-c3ccc4c(c3)OCO4)noc2-c2ccsc2)cn1,"inconclusive: 29.1 µM [activator, single point]",–
CSCC[C@H](NC(=O)c1cccc([N+](=O)[O-])c1C)c1nc2ccccc2[nH]1,inactive,–
CC1=C(C(=O)Nc2ccccc2C(=O)N2CCC(C)CC2)SCCO1,"inconclusive: 23.1 µM [activator, partial curve, poor fit]",–
CCCCc1ccc(NC(=S)N2CCCC2)cc1,inactive,–
CCc1cc(=O)oc2cc(OC(C)C(=O)NCc3ccccn3)ccc12 (stereo unspecified),"inconclusive: 5.17 µM [activator, single point]",–
CCC1Oc2ccccc2N(CC(=O)NCc2cccs2)C1=O (stereo unspecified),inactive,–
COc1ccc2[nH]c3c(=O)n(Cc4ccc(C(=O)N5CCC(C(N)=O)CC5)cc4)c(=S)[nH]c3c2c1,inactive,–
Oc1ccc(/C=N\Nc2cc(N3CCOCC3)nc(N3CCOCC3)n2)c(O)c1,"inconclusive: 23.1 µM [activator, single point]",–
CCC(=O)N(CCC(Cc1ccccc1)c1ccc2c(c1)OCO2)Cc1ccccc1F (stereo unspecified),"inconclusive: 11.6 µM [activator, partial curve]",–

# Retrieved by compound from above, two records:
SMILES,Potency,re-replication activation
CCOC(=O)c1c[nH]c(=O)c(Br)c1O,inactive,–
O=C(CCl)N(C/C=C/c1ccccc1)c1ccc2c(c1)OCCO2,"inconclusive: 23.1 µM [activator, partial curve, poor fit]",–

# Looked up above:
# Potency with `Cn1ccnc1SCC(=O)c1ccc(F)cc1` is entered as inactive
# Potency with `COc1ccc2[nH]c3c(=O)n(Cc4ccc(C(=O)N5CCC(C(N)=O)CC5)cc4)c(=S)[nH]c3c2c1` is entered as inactive
# Potency with `Cc1ccc(C(=O)C[n+]2cc(-c3ccc(C)cc3)n3c2CCCCC3)cc1` is entered as inactive
# Potency with `CSCC[C@H](NC(=O)c1cccc([N+](=O)[O-])c1C)c1nc2ccccc2[nH]1` is entered as inactive

# The results go on.

SMILES,Potency,re-replication activation
Cc1ccc(S(=O)(=O)N/N=C\C=C\c2ccccc2)cc1,"inconclusive: 20.6 µM [activator, single point]",–
CCOC(=O)/C(C#N)=C1\CC2CCC1(C)C2(C)C (stereo unspecified),"inconclusive: 0.0082 µM [activator, full curve, poor fit]",–
CC(O)c1nc2ccc(C(=O)O)cc2[nH]1 (stereo unspecified),inactive,–
CCCn1c(=N)c(S(=O)(=O)c2ccc(F)cc2)cc2c(=O)n3cccc(C)c3nc21,"inconclusive: 0.92 µM [activator, full curve, poor fit]",–
Cc1ccc2nc3c(c(Nc4ccc(O)cc4)c2c1)CCC3,"inconclusive: 2.91 µM [activator, single point]",–
C[C@H](N)C(=O)OCc1ccc([N+](=O)[O-])cc1,"inconclusive: 3.66 µM [activator, full curve, poor fit]",–
O=C(N/N=C/c1cccc(C(F)(F)F)c1)c1ccccc1O,inactive,–
Cc1cc(=O)oc2cc(OC(C)C(=O)NCCCN3CCCC3=O)c(Cl)cc12 (stereo unspecified),"inconclusive: 14.6 µM [activator, partial curve, poor fit]",–
COCCNC(=S)NNC(=O)CSCc1ccc(Cl)cc1Cl,"inconclusive: 3.26 µM [activator, full curve, poor fit]",–
COc1ccc(S(=O)(=O)N2CCCCCC2)cc1C(=O)N(C)Cc1c(F)cccc1Cl,inactive,–
CC1=NN(c2ccccc2)C(=O)C1C(=O)C(=O)Nc1ccc(F)cc1 (stereo unspecified),inactive,–
Fc1ccc(-c2noc(-c3ccc4c(c3)CCO4)n2)cc1,"inconclusive: 18.4 µM [activator, single point]",–
O=C1/C(=C/c2c[nH]c3ccccc23)CCC/C1=C\c1c[nH]c2ccccc12,"inconclusive: 25.9 µM [activator, single point]",–
COc1cc(NS(=O)(=O)c2ccc(N/C=C\C(=O)c3ccc(OC)c(OC)c3)cc2)nc(OC)n1,"inconclusive: 16.4 µM [activator, partial curve, poor fit]",–
S=C(NCc1cccs1)Nc1ccccc1Cl,inactive,–
Cc1oc(C)c2c(=O)ccc3c(c12)OC(N)=C(C#N)C3c1ccc(F)cc1 (stereo unspecified),inactive,–
O=C(Cc1c[nH]c2ccccc12)NCC(=O)Nc1ccc(F)c(F)c1F,inactive,–
CN(c1ccccc1)S(=O)(=O)c1ccc(NC(=O)CC(=O)c2ccccc2)cc1,inactive,–
Cc1noc(C)c1COC(=O)c1ccccc1Sc1ccccc1C#N,inactive,–
CN(CC(=O)Nc1ccc(Cl)c(C(F)(F)F)c1)C(=O)c1cccnc1Sc1ccccc1,"inconclusive: 29.1 µM [activator, single point]",–
O=C(CN1C(=O)c2cccc3cccc1c23)NCc1ccc2c(c1)OCO2,"inconclusive: 29.1 µM [activator, partial curve, poor fit]",–
Cc1ccc(O)c(C(=O)c2cc(C(=O)NCCc3ccccc3)c(=O)n(CCc3ccccc3)c2)c1,"inconclusive: 3.66 µM [activator, full curve, poor fit]",–
COc1ccc(C(NC(=O)C2C3C=CC(C3)C2C(=O)O)c2ccccc2)cc1 (stereo unspecified),"inconclusive: 23.1 µM [activator, single point]",–
CC(Oc1ccccc1)C(=O)N(CCC1=CCCCC1)c1c(N)n(Cc2ccccc2)c(=O)[nH]c1=O (stereo unspecified),"inconclusive: 1.3 µM [activator, partial curve, poor fit]",–

SMILES,Potency,re-replication activation
O=C(NCc1cccc2[nH]ccc12)C1CCC(=O)N(CCc2ccccc2)C1 (stereo unspecified),inactive,–
Cc1ccc(C(C)C)cc1OCC(=O)NC1CCCCCCC1,"inconclusive: 18.4 µM [activator, partial curve, poor fit]",–
C/C(=N\Nc1ccc(Cl)c(Cl)c1)c1ccc(-n2ccnc2)cc1,"inconclusive: 25.9 µM [activator, single point]",–
CCC(=O)Nc1ccc(C(=O)Nc2c[nH]c(=O)[nH]c2=O)cc1,inactive,–
COc1ccc(/C=N/Nc2ncnc3sc4c(c23)CCCC4)cc1OC,"inconclusive: 18.4 µM [activator, single point]",–
CN(C)CCCNc1ncnc2sc(-c3ccccc3)cc12,"inconclusive: 18.4 µM [activator, single point]",–
COc1ccc(NC(=O)CSc2ncnc3[nH]ncc23)cc1,"inconclusive: 29.1 µM [activator, single point]",–
CCCn1c(N)c(N(CCOC)C(=O)c2cc(C)cc(C)c2)c(=O)[nH]c1=O,inactive,–
O=C(CNc1ccc(Br)cc1)NC(=O)NC1CCCCC1,inactive,–
CCOC(=O)C1(CC2CC2)CCN(Cc2ccc(C(=O)OC)cc2)CC1,"inconclusive: 3.66 µM [activator, single point]",–
O=C(NCc1ccco1)c1cc2c(s1)CSC2,"inconclusive: 18.4 µM [activator, single point]",–
COc1ccc(CN(C)C(=O)c2ccc(NS(=O)(=O)c3ccccc3)cc2)c(OC)c1,–,inconclusive: -720% [activator]
O=C(NC1CCCC1)c1ccc([N+](=O)[O-])s1,"inconclusive: 23.1 µM [activator, single point]",–
CC(C)(C)c1cc(CCC(=O)NNC(=S)NC(=O)c2ccccc2)cc(C(C)(C)C)c1O,"inconclusive: 29.1 µM [activator, single point]",–
COc1cc(NS(=O)(=O)c2ccc3ccccc3c2)c2ncccc2c1,"inconclusive: 13 µM [activator, partial curve]",–
O=C(COC(=O)c1ccc(F)cc1)NCC1CCCCC1,inactive,–
O=C(COC(=O)CNC(=O)c1sc2ccccc2c1Cl)NC1CCS(=O)(=O)C1 (stereo unspecified),"inconclusive: 20.6 µM [activator, partial curve, poor fit]",–
CCCCc1nnc(NC(=O)CCS(=O)(=O)c2ccc(C)cc2)s1,"inconclusive: 29.1 µM [activator, single point]",–
Cc1ccc(OCCn2cc(C=O)c3ccccc32)cc1,inactive,–
Cc1ccc(C2=NN(C(=O)CCl)C(c3ccco3)C2)o1 (stereo unspecified),"inconclusive: 1.84 µM [activator, full curve, poor fit]",–
COc1ccc(-c2nn(-c3ccccc3)cc2/C=N/N2C(=O)CSC2=S)cc1,"inconclusive: 16.4 µM [activator, single point]",–
CCOc1nc2cccc(C(=O)O)c2n1Cc1ccc(-c2ccccc2-c2nn[nH]n2)cc1,inactive,–
CN1/C(=C\C(=O)c2cccnc2)C(C)(C)c2ccccc21,"inconclusive: 9.2 µM [activator, partial curve, poor fit]",–
